Laboratory results: paper PMC9791439
These are yes or no findings as the source states them, for the method shown. Binding seen in cells or lysates may run through a third protein. These calls come from enrichment with a bait or labelling near it, and not all partners need be listed. For part of these data: No binding means not detected with the bait. Values belong to the molecule of their own block, whether it stands above or below them.

Sequences of proteins named here, by UniProt entry; tags and fusion partners are left off. A change or cut given only in a name is not applied to a line headed by its entry.
UniProt Q38E63: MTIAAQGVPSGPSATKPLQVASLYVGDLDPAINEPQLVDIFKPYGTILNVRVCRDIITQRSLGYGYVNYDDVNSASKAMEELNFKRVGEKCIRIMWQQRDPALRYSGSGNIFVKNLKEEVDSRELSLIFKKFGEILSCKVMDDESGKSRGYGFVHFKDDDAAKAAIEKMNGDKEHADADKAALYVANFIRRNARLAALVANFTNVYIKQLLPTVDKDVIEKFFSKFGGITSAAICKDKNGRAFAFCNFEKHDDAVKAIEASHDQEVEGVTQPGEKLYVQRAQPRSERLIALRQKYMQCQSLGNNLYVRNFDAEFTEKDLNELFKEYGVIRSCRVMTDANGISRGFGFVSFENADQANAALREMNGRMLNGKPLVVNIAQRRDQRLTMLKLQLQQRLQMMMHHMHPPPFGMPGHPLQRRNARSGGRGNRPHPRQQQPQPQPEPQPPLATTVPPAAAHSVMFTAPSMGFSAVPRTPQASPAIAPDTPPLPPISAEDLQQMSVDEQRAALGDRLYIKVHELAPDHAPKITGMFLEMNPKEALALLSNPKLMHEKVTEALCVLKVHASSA
UniProt Q382M8: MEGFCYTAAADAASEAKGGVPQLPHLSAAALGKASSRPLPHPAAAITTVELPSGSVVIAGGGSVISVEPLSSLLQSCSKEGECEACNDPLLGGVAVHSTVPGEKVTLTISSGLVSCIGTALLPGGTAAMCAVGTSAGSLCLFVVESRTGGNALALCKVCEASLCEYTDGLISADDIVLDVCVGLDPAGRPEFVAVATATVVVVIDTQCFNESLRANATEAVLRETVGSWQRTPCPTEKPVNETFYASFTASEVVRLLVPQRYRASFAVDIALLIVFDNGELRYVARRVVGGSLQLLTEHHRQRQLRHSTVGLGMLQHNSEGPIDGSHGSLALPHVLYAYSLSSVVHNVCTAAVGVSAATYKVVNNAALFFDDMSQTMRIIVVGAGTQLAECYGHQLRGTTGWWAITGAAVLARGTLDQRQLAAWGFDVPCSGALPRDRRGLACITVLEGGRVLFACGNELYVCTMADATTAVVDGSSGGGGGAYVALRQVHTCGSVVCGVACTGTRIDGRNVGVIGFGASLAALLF
UniProt Q585M4: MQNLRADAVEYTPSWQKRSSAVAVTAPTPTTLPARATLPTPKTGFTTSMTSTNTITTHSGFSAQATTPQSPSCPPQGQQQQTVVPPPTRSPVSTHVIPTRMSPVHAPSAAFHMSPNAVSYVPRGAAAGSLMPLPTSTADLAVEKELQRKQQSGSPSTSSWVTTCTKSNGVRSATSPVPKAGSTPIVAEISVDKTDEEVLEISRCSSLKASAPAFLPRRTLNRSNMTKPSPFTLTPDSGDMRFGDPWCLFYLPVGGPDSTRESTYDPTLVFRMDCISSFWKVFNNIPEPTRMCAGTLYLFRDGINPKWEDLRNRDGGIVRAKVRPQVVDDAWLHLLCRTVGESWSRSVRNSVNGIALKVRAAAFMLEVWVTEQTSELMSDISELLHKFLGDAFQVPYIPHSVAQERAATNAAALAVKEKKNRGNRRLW
UniProt Q57UX0: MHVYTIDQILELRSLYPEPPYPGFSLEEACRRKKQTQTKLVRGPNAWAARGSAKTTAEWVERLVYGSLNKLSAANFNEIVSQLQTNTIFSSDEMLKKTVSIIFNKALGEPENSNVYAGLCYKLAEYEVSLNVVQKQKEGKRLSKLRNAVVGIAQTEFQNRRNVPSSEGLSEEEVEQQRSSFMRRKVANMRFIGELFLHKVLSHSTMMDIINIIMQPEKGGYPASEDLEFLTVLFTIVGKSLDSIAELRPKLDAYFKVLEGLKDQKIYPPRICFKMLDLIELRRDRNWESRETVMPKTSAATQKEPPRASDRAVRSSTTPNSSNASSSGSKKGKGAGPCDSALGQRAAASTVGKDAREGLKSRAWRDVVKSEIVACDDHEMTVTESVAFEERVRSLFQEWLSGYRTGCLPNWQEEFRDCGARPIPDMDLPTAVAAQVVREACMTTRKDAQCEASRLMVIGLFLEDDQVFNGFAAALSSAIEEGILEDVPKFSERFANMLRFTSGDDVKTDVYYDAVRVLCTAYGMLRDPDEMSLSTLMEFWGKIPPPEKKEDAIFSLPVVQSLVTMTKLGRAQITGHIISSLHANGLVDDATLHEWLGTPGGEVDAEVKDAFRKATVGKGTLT

Columns and labels:
[1] = molecular target: PABP1-TurboID (T. brucei) (UniProt Q38E63); experiment: proximity labelling; BioID: bait fused C-terminally to TurboID-HA at the endogenous locus in procyclic T. brucei; steady-state biotinylation with the biotin of SDM-79 medium (827 nM); streptavidin Dynabeads, washes incl. 2% SDS, on-bead trypsin, LC-MS/MS, LFQ, triplicates against wt cells and an eYFP-TurboID control; cutoffs SigA (FDR 0.01) and SigB (FDR 0.05)
[2] = molecular target: NUP158-TurboID (T. brucei) (UniProt Q387F2); experiment: as above
[3] = molecular target: NUP158 endogenously tagged with eYFP at the C terminus (T. brucei) (UniProt Q387F2); experiment: affinity purification with mass spectrometry; cryomill affinity capture of NUP158-eYFP; buffer 3 (20 mM Hepes pH 7.4, 250 mM NaCl, 0.5% CHAPS); GFP-Trap magnetic anti-GFP nanobody beads, four washes, on-bead trypsin, triplicate LC-MS/MS; cutoffs SigA/SigB
[4] = molecular target: MEX67 TurboID (T. brucei); experiment: proximity labelling; BioID: bait fused C-terminally to TurboID-HA at the endogenous locus in procyclic T. brucei; steady-state biotinylation with the biotin of SDM-79 medium (827 nM); streptavidin Dynabeads, washes incl. 2% SDS, on-bead trypsin, LC-MS/MS, LFQ, triplicates against wt cells and an eYFP-TurboID control; cutoffs SigA (FDR 0.01) and SigB (FDR 0.05)
[5] = molecular target: C-terminally GFP-tagged MEX67 (T. brucei); experiment: affinity purification with mass spectrometry; cryomill affinity capture of MEX67-GFP with anti-GFP nanobody; data of ref. 11 reanalysed here for three extraction conditions (buffer 1: 20 mM Hepes pH 7.4, 250 mM NaCl, 0.5% Triton; buffers 2A and 2B with sodium citrate and 0.5% Tween-20) against a control without GFP tag; confidence A: >2-fold in all three, confidence B: >2-fold in at least one

Molecule: Tb927.11.13080 (from UniProt Q382M8)
binding [2]: binds
binding [3]: binds

Molecule: eIF4E4 (from UniProt Q585M4)
binding [1]: binds

B2: exosome subunit RRP6 (protein, UniProt Q95Z10 1-703)
chain: MSGSLPQTKDLVNGAFTLVKEYTKLTADLAEEDYDYHMAFPAFRHQITRHSEAVVSLMDKFCQLLPAKRRVTLSSTGGKLTDPQRAAVMEAADSLLENVDGLLDELKGRRLSAKDQLSVKFGSELQGVVPSSSYSVFNAAGVSVLRPQLTFEHPVDNSPTPFRPVYYDEKGVRHVGEPGVHPFAERIKAVSVPSEQLLLKTETPYLSLVTCPLTFVDTVEDLEALVAVLLNETEIAVDLEHHDFYSYQGFTCLMQISTRTQDFIVDCLKVRANMYLMAPVFLQPNIVKVFHGAREDVRWLQKDFGLYIVNLFDTSIALQNLHMPHSLAFAVDHFCQVKLNKKYQTADWRVRPIPAEMVSYAQQDTHFLLYVYDRLKQLLLNCEARASVGNMLLHVFQESRLLSLERYEKPHLDPDVTYKQALGRSLGGLSSPQLQVAREIFNWRDMAAREADDSPSAVMHISCVLSIATKLPTSANEVLKCCSPVSVAVRTNVMKLLQIVKDAIGSADSLKDGANGDVKPKPLPNVGVALRYMGVHRSMTGTLPSIEQRADPAFTVEDAHVVVRTEPSAWFETMRNVAAILRRKPYYPIALPGHDVVTRMSAVKRAREVEEMKVKGEGEEEEKRVHVDAEEPTVERENSSERGEGMAGPCLQEGLEVKDEVEEIDVPTQKPLELKEGAISLHQQYGTGSANRKKARLGKKNKL
binding [4]: binds

More lines, now with the values ahead:

binding [1]: binds
Molecule: eIF4G3 (from UniProt Q57UX0)

binding [4]: binds
B1: cap guanylyltransferase-methyltransferase 1 (CGM1) (protein, UniProt Q57V03 1-1050)
chain: MESTSSLSDLHKYAERRFGRSLLIPVDEEFVKAVHPPVPSEASEVAPAVDFVEAYRNLVSRNLQRKRTANNAPTSPASSGVPKFIYAHAAEAVVGTRVGEFMGPLCSPLRKSHASMLRSAPYFVTEKSDGTRVVLVSLIAPLGPSWSIEDKNGGDVLLKHVGRLDDVVALEEARQQLCQENTAQVGDLHQKIHLSFGHFAVERWHEKSSYGTVELFALRCCENGSSSSQGGGDVIRAERLIGKRHMAYCFDRSMDYAYLLLEEHAVPSLHSFVVDAELMVPIQKGSARLLLGCFDVFRYVIVGESAPRDVVLTRAHTSARHAALRKDIIEPMEEFQRGTVGVPLLRIFAKEMFPLNKFGDCVLRLRCGESANHIGGVVYLYDGPYGWTKSDGFIFTPEKFDILQGASKTQLKWKWPSMLSVDWSLTAFEGQNNFFVVDSFFRKKRFGHQPDSCGHVRLSSKMSLLNPFSLPIPTRGSVVAECVFDREQKCWSIERLRNDKAEANSIVTIISVMESLVEDITLSTLFDLIGLNDTPLPSEKVHELESAADMVNRGGERGNTAAIQDVEEKHEKKRCQFTLRATQLQAQGEHEIHLYWAVRLPSEKAHVPCIHCKVSECTGFGFACPAEDPTSRLREYLYIALANAGGSCAWSDFTVEAVFNGGTGRWNIASMQPNGDNKRSTCVGVIHHLQWLLQRGVDSASPESTETPERVIPLHLQGVERPAVLQVEQVNAHYACKTKELSTGKNRSILRHYNNWIKGVLISTSVSYLRSNNKGGEFDNDGMVVADLCSGRGGDLHKWRAHQPKLLFMTDCCLEAVAEAAARYSITKGLSIKVVPHDKNPPGIRAQFCVLDVFDEKGSLVTKLEEFLKQCHDGGKLDVVSCQFSIHYGCSNEERVRVFLSAVSSTLKSGGIFIGTTVSDTELLRRLRQYGTTFGNGIYTVRFPTDAVPNDSFGVEYSVSFESSVSEMPEYLVPWNRFVNLCGAYNLQLVESFGFVEYGDMHYNSALGQELRDASMNGGRRDSDGHLRLRLSPDEAEAAGLFRTFLFVKI

binding [4]: binds
B3: exportin-1 (XPO1) (protein, UniProt Q7Z2C1 1-1033)
chain: MEDILDFSKPVDVQRFDQVVQYLSTGSPQEIVRAQEVLTAFKERPDSFLRVGDLLTKSVNLTTRFFALQVLEDAILHRWNTFTAEQCQEIRNFVVNMIVGECVSFNQIRSRRALLMKMNSALVSIAKREWPVRWPTFIKDVCSSAGPDEPLVENNLNILRMVGEEIFEFSEKTLTTRWLKRKKEALQSDFQAILQLCLSILSTSDEALLKTNLECLEKYLSWVEPASVFNEELLKYLAGLIARKSAVSRCAVRCLTVACSVETDHGSVGDAQAQVMVRVFRTILDNIMNLLPTNHSSVEARIVQFSNMEGSVDAGFVGDLNLLLVAFLKHYTRNIMYDDLLLISANQLIVGMSHINDKELFKSCVDYWWWLGEKMVRSASPTPLHRKLALVLSNVRFTLIKKMARPEEVIIVVEDGEVRRVHMKDVEELQLYKLMRETLVFLTYLDPQDMQAIMTKIVMKLEDLSEWSWHNCNTLSWAVGAISVALTEEQESSLFVVIVRGLLDLCSKLQGKENRAVVASGIMFVVGQYPRFLRAHQPFFRAVVKKVIEFMCDLFPGVQEMAVDTLLKVASQVPDQFVCVKNNGISLAEETAKRWTEITSLLKPQHMHTCFVAAGWMVKGEKPERQPSLLGMFLQDANDSFRIIVERAASKGPAFGEDFSGMGELIHILRVFSSIASSCGTSFVNEMGIIIYDLQGLYRTFFSAQTALVADHGTDAMERQEARYLRLAKREILRIFECFVDNTEECDFVATNCMPSILTTVLEDYRDSLPIVKEAGALALVTACVNKLGTRLAGDCAAILDHTSDTTISMICANAEDFPEFRVNLFKLLHALNTRCFSNFLSYASTKGDVINGMLWVIKHTDFAIMETGLKTLDAFLENVSRSELLQPFYDAFMQQIFVEVLVSAMDSLHAAGFELHCSILIKLFTVSSMFPVDLPKLGRNDIESFLCENLSTIATLTPVLIKQFIAGAYEKYGDPVEFRRSFADFLIEMQVWGAEEENRLQQEEEQRRREEDIPGFAALSVKGPPPTPSFYP

binding [4]: no binding
binding [5]: no binding
B4: KMP11 (protein, UniProt P69301 1-92)
chain: MATTYEEFAAKLDRLDAEFAKKMEEQNKRFFADKPDEATLSPEMKEHYEKFEKMIQEHTDKFNKKMREHSEHFKAKFAELLEQQKNAQFPGK
